Data taken from patent US20160123962A1 (ALBERT EINSTEIN COLLEGE OF MEDICINE, published 2016).
No constants are given. Whether binding was seen depends on the method and setting. Binding seen in cells or lysates may run through a third protein. Some binding calls cover weakened binding; strength is not graded here.

Sequences of proteins named here, by UniProt entry; tags and fusion partners are left off. A change or cut given only in a name is not applied to a line headed by its entry.
UniProt B9EKR1: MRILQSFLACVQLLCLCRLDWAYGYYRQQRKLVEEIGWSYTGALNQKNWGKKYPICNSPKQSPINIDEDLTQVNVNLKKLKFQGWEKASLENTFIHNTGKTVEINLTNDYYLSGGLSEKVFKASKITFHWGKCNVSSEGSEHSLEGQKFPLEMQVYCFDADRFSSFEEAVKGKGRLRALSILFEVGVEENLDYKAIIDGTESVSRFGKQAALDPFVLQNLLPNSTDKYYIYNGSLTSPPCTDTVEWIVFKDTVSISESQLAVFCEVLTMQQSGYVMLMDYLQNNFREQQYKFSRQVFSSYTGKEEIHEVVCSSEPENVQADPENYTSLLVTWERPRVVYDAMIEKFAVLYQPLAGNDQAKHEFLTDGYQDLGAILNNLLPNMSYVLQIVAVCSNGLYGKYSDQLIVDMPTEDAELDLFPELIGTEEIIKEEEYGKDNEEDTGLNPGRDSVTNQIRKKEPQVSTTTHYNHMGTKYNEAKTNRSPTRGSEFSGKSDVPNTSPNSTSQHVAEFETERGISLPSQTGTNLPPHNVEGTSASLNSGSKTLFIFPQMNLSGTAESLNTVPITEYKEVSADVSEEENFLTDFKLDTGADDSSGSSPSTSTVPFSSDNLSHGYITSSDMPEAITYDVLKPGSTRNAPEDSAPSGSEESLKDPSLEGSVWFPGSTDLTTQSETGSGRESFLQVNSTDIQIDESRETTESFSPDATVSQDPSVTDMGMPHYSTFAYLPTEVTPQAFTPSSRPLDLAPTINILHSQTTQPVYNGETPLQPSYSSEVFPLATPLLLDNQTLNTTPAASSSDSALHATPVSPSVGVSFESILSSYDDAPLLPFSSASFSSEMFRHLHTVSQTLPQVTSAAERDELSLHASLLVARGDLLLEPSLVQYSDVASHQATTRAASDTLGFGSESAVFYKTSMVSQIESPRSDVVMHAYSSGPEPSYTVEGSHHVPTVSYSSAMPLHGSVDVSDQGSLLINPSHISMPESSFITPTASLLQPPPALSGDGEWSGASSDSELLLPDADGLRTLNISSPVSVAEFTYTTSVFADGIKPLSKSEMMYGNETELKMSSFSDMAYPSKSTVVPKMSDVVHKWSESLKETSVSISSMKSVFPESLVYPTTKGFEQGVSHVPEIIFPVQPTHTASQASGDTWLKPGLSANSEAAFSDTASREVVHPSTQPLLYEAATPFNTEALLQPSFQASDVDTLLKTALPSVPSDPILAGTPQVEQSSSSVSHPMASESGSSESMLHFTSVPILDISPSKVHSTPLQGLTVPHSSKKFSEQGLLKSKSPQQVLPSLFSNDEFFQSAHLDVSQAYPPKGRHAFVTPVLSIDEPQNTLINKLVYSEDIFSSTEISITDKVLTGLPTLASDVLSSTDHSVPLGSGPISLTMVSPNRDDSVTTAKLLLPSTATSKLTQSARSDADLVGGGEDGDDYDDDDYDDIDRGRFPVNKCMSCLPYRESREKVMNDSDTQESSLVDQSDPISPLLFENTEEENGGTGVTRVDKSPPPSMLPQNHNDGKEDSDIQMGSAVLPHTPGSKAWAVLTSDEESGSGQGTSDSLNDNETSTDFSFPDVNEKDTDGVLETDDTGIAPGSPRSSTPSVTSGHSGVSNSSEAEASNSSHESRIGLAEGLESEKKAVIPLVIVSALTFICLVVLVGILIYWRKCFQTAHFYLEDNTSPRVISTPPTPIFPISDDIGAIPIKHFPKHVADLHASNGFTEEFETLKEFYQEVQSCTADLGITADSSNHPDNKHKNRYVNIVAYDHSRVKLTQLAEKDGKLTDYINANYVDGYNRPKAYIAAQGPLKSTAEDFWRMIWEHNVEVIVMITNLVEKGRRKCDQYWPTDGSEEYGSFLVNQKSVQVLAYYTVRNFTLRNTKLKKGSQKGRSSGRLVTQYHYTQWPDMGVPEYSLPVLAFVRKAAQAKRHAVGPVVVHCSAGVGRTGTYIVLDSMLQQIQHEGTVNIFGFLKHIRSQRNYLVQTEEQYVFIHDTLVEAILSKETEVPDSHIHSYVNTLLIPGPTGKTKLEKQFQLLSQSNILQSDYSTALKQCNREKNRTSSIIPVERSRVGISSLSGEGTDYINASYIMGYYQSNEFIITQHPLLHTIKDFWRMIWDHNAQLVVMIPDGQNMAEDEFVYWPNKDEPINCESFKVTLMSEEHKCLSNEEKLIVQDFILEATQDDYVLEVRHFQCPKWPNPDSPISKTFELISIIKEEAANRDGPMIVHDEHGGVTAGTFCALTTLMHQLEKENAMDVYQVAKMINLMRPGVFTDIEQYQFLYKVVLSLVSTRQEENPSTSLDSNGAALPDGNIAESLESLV

How the values were obtained:
[1] = molecular target: mouse PTP-ζ (PTP-β/ζ) of mouse brain membrane fractions (mouse) (UniProt B9EKR1); assay: co-immunoprecipitation of TN-R with PTP-ζ by anti-PTP-ζ 3F8 from mouse brain membrane fraction, western blot for TN-R [panel C]
[2] = molecular target: mouse PTP-ζ (PTP-β/ζ) of mouse brain membrane fractions (mouse) (UniProt B9EKR1); assay: co-immunoprecipitation with anti-PTP-ζ 3F8 from mouse brain membrane lysate with or without mIL-34, western blot
[3] = molecular target: mouse PTP-ζ (PTP-β/ζ) of mouse brain membrane fractions (mouse) (UniProt B9EKR1); assay: co-immunoprecipitation of mIL-34 with PTP-ζ by anti-PTP-ζ 3F8 from mouse brain membrane fraction, western blot for IL-34 [panel C]
[4] = molecular target: T1, mouse tenascin-R (TN-R) of mouse brain membrane fractions (mouse) (UniProt Q8BYI9); assay: pull-down / immunoprecipitation from OG-solubilized mouse brain membrane fraction, western blot for TN-R (co-precipitation from a lysate, may be indirect) [panel A]
T1 sequence: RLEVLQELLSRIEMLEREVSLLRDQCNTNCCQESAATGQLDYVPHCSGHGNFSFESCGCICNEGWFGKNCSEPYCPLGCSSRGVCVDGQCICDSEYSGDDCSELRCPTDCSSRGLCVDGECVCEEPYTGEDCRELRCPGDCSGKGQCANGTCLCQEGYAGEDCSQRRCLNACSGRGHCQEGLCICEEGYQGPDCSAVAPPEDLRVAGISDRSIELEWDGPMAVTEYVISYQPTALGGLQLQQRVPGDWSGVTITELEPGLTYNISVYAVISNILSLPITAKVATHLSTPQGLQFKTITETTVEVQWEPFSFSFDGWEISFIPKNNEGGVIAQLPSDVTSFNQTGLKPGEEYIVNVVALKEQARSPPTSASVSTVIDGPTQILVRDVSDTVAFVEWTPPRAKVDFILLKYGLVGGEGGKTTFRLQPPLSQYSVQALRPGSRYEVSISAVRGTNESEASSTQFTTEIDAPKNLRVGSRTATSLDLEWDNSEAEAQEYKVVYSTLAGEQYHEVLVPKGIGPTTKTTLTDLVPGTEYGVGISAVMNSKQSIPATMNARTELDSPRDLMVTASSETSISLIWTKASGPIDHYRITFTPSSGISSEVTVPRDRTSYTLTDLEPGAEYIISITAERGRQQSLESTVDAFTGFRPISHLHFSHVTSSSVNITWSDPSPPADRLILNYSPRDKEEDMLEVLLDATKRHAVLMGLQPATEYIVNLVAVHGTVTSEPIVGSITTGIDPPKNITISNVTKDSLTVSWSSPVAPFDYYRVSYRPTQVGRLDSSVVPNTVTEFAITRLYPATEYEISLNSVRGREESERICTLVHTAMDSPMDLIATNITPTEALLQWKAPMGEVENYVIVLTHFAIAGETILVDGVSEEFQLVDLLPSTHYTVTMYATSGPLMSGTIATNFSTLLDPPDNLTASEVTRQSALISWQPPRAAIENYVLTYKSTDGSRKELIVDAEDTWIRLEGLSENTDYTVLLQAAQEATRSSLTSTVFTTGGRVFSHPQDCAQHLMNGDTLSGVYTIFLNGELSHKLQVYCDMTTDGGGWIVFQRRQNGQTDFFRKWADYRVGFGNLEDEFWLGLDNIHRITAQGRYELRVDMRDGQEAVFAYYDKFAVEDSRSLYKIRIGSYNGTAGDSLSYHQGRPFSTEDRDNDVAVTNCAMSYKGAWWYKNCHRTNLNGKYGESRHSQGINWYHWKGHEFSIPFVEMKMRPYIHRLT

[5] = molecular target: T1, mouse tenascin-R (TN-R) of mouse brain membrane fractions (mouse); assay: mIL-34/anti-mIL-34 bead or biotinylated mIL-34 pull-down from mouse brain membrane lysate, silver stain, MS, western blot
[6] = molecular target: mouse PTP-ζ (PTP-β/ζ) of mouse brain membrane fractions (mouse) (UniProt B9EKR1); assay: as above
[7] = molecular target: mouse PTP-ζ (PTP-β/ζ) of mouse brain membrane fractions (mouse) (UniProt B9EKR1); assay: affinity purification from mouse brain membrane lysate, LC-MS/MS
[8] = molecular target: mouse PTP-ζ (PTP-β/ζ) of mouse brain membrane fractions (mouse) (UniProt B9EKR1); assay: pull-down / immunoprecipitation from OG-solubilized mouse brain membrane fraction, SDS-PAGE, silver stain and western blot [panel A]
[9] = molecular target: T1, mouse tenascin-R (TN-R) of mouse brain membrane fractions (mouse); assay: reciprocal co-immunoprecipitation with anti-PTP-ζ 3F8 from mouse brain membrane lysate, western blot
[10] = molecular target: mouse PTP-ζ (PTP-β/ζ) of mouse brain membrane fractions (mouse) (UniProt B9EKR1); assay: as above
[11] = molecular target: mouse PTP-ζ (PTP-β/ζ) of mouse brain membrane fractions (mouse) (UniProt B9EKR1); assay: pull-down from membrane lysates

Measured: binding

B1: mouse tenascin-R (TN-R) of mouse brain membrane fractions (protein)
chain: RLEVLQELLSRIEMLEREVSLLRDQCNTNCCQESAATGQLDYVPHCSGHGNFSFESCGCICNEGWFGKNCSEPYCPLGCSSRGVCVDGQCICDSEYSGDDCSELRCPTDCSSRGLCVDGECVCEEPYTGEDCRELRCPGDCSGKGQCANGTCLCQEGYAGEDCSQRRCLNACSGRGHCQEGLCICEEGYQGPDCSAVAPPEDLRVAGISDRSIELEWDGPMAVTEYVISYQPTALGGLQLQQRVPGDWSGVTITELEPGLTYNISVYAVISNILSLPITAKVATHLSTPQGLQFKTITETTVEVQWEPFSFSFDGWEISFIPKNNEGGVIAQLPSDVTSFNQTGLKPGEEYIVNVVALKEQARSPPTSASVSTVIDGPTQILVRDVSDTVAFVEWTPPRAKVDFILLKYGLVGGEGGKTTFRLQPPLSQYSVQALRPGSRYEVSISAVRGTNESEASSTQFTTEIDAPKNLRVGSRTATSLDLEWDNSEAEAQEYKVVYSTLAGEQYHEVLVPKGIGPTTKTTLTDLVPGTEYGVGISAVMNSKQSIPATMNARTELDSPRDLMVTASSETSISLIWTKASGPIDHYRITFTPSSGISSEVTVPRDRTSYTLTDLEPGAEYIISITAERGRQQSLESTVDAFTGFRPISHLHFSHVTSSSVNITWSDPSPPADRLILNYSPRDKEEDMLEVLLDATKRHAVLMGLQPATEYIVNLVAVHGTVTSEPIVGSITTGIDPPKNITISNVTKDSLTVSWSSPVAPFDYYRVSYRPTQVGRLDSSVVPNTVTEFAITRLYPATEYEISLNSVRGREESERICTLVHTAMDSPMDLIATNITPTEALLQWKAPMGEVENYVIVLTHFAIAGETILVDGVSEEFQLVDLLPSTHYTVTMYATSGPLMSGTIATNFSTLLDPPDNLTASEVTRQSALISWQPPRAAIENYVLTYKSTDGSRKELIVDAEDTWIRLEGLSENTDYTVLLQAAQEATRSSLTSTVFTTGGRVFSHPQDCAQHLMNGDTLSGVYTIFLNGELSHKLQVYCDMTTDGGGWIVFQRRQNGQTDFFRKWADYRVGFGNLEDEFWLGLDNIHRITAQGRYELRVDMRDGQEAVFAYYDKFAVEDSRSLYKIRIGSYNGTAGDSLSYHQGRPFSTEDRDNDVAVTNCAMSYKGAWWYKNCHRTNLNGKYGESRHSQGINWYHWKGHEFSIPFVEMKMRPYIHRLT
binds: [1] | [2]

B2: mouse IL-34 (interleukin-34) (ligand, UniProt Q8R1R4 21-235, looked up)
chain: NENLEIWTLTQDKECDLTGYLRGKLQYKNRLQYMKHYFPINYRIAVPYEGVLRVANITRLQKAHVSERELRYLWVLVSLNATESVMDVLLEGHPSWKYLQEVQTLLENVQRSLMDVEIGPHVEAVLSLLSTPGLSLKLVRPKALLDNCFRVMELLYCSCCKQSPILKWQDCELPRLHPHSPGSLMQCTATNVYPLSRQTPTSLPGSPSSSHGSLP
modifications: biotinylated with EZ-Link Sulfo-NHS-LC-LC-Biotin in the neutravidin pull-down
not listed: [1] | [2]
binds: all other assays above
